# Experimental data taken from PubChem BioAssay AID651789 (National Center for Advancing Translational Sciences (NCATS), 2012).
# This list was built around the results that the source calls inconclusive (neither active nor inactive); the mix of calls is not that of the screen. Potencies of inconclusive entries are doubtful fits and often do not repeat. Activity calls are given as the source filed them. Calls follow the shape of the dose curve; as a rule, active = well fitted inhibition curve with a large enough effect; inconclusive = small, poorly fitted or top-dose-only effect; inactive = no such curve, though single readings can be large or run the other way.
# Assay: Acumen qHTS Assay for Inhibitors of the mTORC1 Signaling Pathway in WT MEF Cells: Hit Validation; also: nearly all actives have a fitted effect of over 60% in size;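 as to activity change, negative = inhibition: phospho-rpS6 Ser235/236 immunofluorescence normalised to propidium iodide cell stain; percent of cells above a cutoff set by 7.5 nM rapamycin treated wells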
# Conditions: Acumen imaging; series mostly up to 37.3 µM; activity change, negative = inhibition: at the top concentration
# In short: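 Read-out is immunofluorescent phospho-rpS6 (Ser235/236) normalised to PI-stained cell number, reported as % active cells using a 7.5 nM rapamycin threshold. Cells: WT or Tsc2-/-, p53-/- MEFs, compound-exposed 24 h at 37C; PI count also tracks viability.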
# Potency is read from the fitted curve at half-maximal effect.
SMILES,Potency,"activity change, negative = inhibition"
COc1cc(OC)cc(C(=O)NCc2ccc3c(c2)CCN3C(=O)c2ccccc2)c1,"inconclusive: 2.93 µM [inhibitor, full curve, poor fit]",–
Brc1ccc(Nc2c3c(nc4nncn24)CCC3)cc1,–,inactive: 3.82%
Cc1ccc(C)c(CN2C(=O)C(O)(c3c(C)[nH]c4ccccc34)c3ccccc32)c1 (configuration not stated),"inconclusive: 3.69 µM [inhibitor, full curve]",–
COc1ccccc1N1CCN(Cc2cc(COC(C)C)c3cccnc3c2O)CC1,active: 2.93 µM,–
CCCCS(=O)(=O)c1oc(-c2ccc(F)cc2)nc1S(=O)(=O)c1ccc(C)cc1,active: 5.21 µM,–
O=C(CCOc1ccccc1)N(Cc1cccnc1)c1nc2c(F)cccc2s1,active: 13.1 µM,–
COc1ccc(CNC(=O)c2nc(S(=O)(=O)Cc3ccccc3)ncc2Cl)cc1,"inconclusive: 14.7 µM [inhibitor, partial curve, poor fit]",–
COc1ccc(NC(=O)CCS(=O)(=O)c2nc(-c3cccs3)cc(C(F)(F)F)n2)cc1OC,"inconclusive: 26.1 µM [inhibitor, single point]",–
CCOC(=O)c1ccc2ncc(C(=O)OCC)c(NCCc3ccc(OC)c(OC)c3)c2c1,–,inactive: 10.7%
COc1ccc(-c2nc(CCNC(=O)c3c(F)cccc3Cl)cs2)cc1,–,inactive: 2.92%
COc1cc(C(=O)CC2(O)C(=O)N(Cc3ccccc3Cl)c3ccccc32)cc(OC)c1OC (configuration not stated),"inconclusive: 3.69 µM [inhibitor, full curve, poor fit]",–
COc1ccc(NC(=O)Cn2c(=O)n(-c3ccccc3)c(=O)c3ccc(C(=O)NCc4ccc5c(c4)OCO5)cc32)cc1,"inconclusive: 18.5 µM [inhibitor, single point]",–

# 2 records picked at random from the list so far, as already listed:
SMILES,Potency,"activity change, negative = inhibition"
COc1cc(OC)cc(C(=O)NCc2ccc3c(c2)CCN3C(=O)c2ccccc2)c1,"inconclusive: 2.93 µM [inhibitor, full curve, poor fit]",–
CCOC(=O)c1ccc2ncc(C(=O)OCC)c(NCCc3ccc(OC)c(OC)c3)c2c1,–,inactive: 10.7%
